Values from PubChem BioAssay AID686943 (Drosophila RNAi Screening Center, 2013).

- Purpose: 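Fly genes whose loss alters ERK activation after insulin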 (primary screen)
- System: Drosophila S2R+ haemocyte-like cells expressing YFP-tagged ERK (Rolled)
- Knock-down reagent: long dsRNA against Drosophila genes
- Challenge: insulin stimulation versus unstimulated cells; dose and duration not given
- Measured: 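Per-plate z-scores of phospho-ERK immunostaining normalised to YFP-tagged ERK, measured with and without insulin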
- Scale: replicate 1, z-score of dpERK with insulin and replicate 2, z-score of dpERK with insulin: higher = more active ERK per ERK-YFP after insulin
The screen tested about 23,000 reagents; this is a random part of those with a known target gene and a result. 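Extra replicates exist only for a retested subset of genes; insulin dose and duration not given; both raised and lowered dpERK matter.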 A plus sign joins genes that one reagent is predicted to hit. Not all columns of the deposit are shown. Not stated in the record: the amount of reagent, the time to read-out.

CG5418 [DRSC02857] → replicate 1, z-score of dpERK with insulin = -0.18; replicate 2, z-score of dpERK with insulin = 0.42
robo3 (roundabout 3) [DRSC00374] → replicate 1, z-score of dpERK with insulin = 0.01; replicate 2, z-score of dpERK with insulin = -0.19
robo3 (roundabout 3) [DRSC00375] → replicate 1, z-score of dpERK with insulin = 0.55; replicate 2, z-score of dpERK with insulin = -0.19
robo3 (roundabout 3) [DRSC00684] → replicate 1, z-score of dpERK with insulin = 0; replicate 2, z-score of dpERK with insulin = -0.26
CG33465 [DRSC05587] → replicate 1, z-score of dpERK with insulin = -0.15; replicate 2, z-score of dpERK with insulin = -0.2
Sgs4 (Salivary gland secretion 4) [DRSC18715] → replicate 1, z-score of dpERK with insulin = 0.53; replicate 2, z-score of dpERK with insulin = 0
CG13587 [DRSC04223] → replicate 1, z-score of dpERK with insulin = -0.47; replicate 2, z-score of dpERK with insulin = 0.4
CG34199 [DRSC05867] → replicate 1, z-score of dpERK with insulin = -0.22; replicate 2, z-score of dpERK with insulin = -0.26
SP (Sex Peptide) [DRSC09664] → replicate 1, z-score of dpERK with insulin = 0.24; replicate 2, z-score of dpERK with insulin = 0.14
CG15044 [DRSC19620] → replicate 1, z-score of dpERK with insulin = 1.23; replicate 2, z-score of dpERK with insulin = 0.55
CG15044 [DRSC21385] → replicate 1, z-score of dpERK with insulin = 0.2; replicate 2, z-score of dpERK with insulin = 1.6
CG30222 [DRSC04125] → replicate 1, z-score of dpERK with insulin = -0.47; replicate 2, z-score of dpERK with insulin = -1.62
CG30222 [DRSC04262] → replicate 1, z-score of dpERK with insulin = -0.3; replicate 2, z-score of dpERK with insulin = 0.09
mRpL38 (mitochondrial ribosomal protein L38) [DRSC19734] → replicate 1, z-score of dpERK with insulin = -0.13; replicate 2, z-score of dpERK with insulin = 0.83
Or49a (Odorant receptor 49a) [DRSC07493] → replicate 1, z-score of dpERK with insulin = -0.07; replicate 2, z-score of dpERK with insulin = 0.44
Vtld + CG42529 [DRSC10102] → replicate 1, z-score of dpERK with insulin = 0.74; replicate 2, z-score of dpERK with insulin = 0.24
Coq2 (Coenzyme Q biosynthesis protein 2) [DRSC16516] → replicate 1, z-score of dpERK with insulin = 0.95; replicate 2, z-score of dpERK with insulin = -0.31
Coq2 (Coenzyme Q biosynthesis protein 2) [DRSC21366] → replicate 1, z-score of dpERK with insulin = -0.33; replicate 2, z-score of dpERK with insulin = -0.06
CG14085 [DRSC10089] → replicate 1, z-score of dpERK with insulin = 0.72; replicate 2, z-score of dpERK with insulin = 0.41
swi2 [DRSC06457] → replicate 1, z-score of dpERK with insulin = -0.21; replicate 2, z-score of dpERK with insulin = -0.63
Tie (Tie-like receptor tyrosine kinase) [DRSC08104] → replicate 1, z-score of dpERK with insulin = -1.31; replicate 2, z-score of dpERK with insulin = -0.01
Tie (Tie-like receptor tyrosine kinase) [DRSC08702] → replicate 1, z-score of dpERK with insulin = -0.32; replicate 2, z-score of dpERK with insulin = 0.36
Sik3 (Salt-inducible kinase 3) [DRSC06505] → replicate 1, z-score of dpERK with insulin = 0.1; replicate 2, z-score of dpERK with insulin = 0.45
Sik3 (Salt-inducible kinase 3) [DRSC06771] → replicate 1, z-score of dpERK with insulin = -0.72; replicate 2, z-score of dpERK with insulin = 0.08
CG34429 [DRSC10120] → replicate 1, z-score of dpERK with insulin = -0.34; replicate 2, z-score of dpERK with insulin = -0.17
Nlg3 (Neuroligin 3) [DRSC12477] → replicate 1, z-score of dpERK with insulin = 1.5; replicate 2, z-score of dpERK with insulin = 1.6
Nlg3 (Neuroligin 3) [DRSC12524] → replicate 1, z-score of dpERK with insulin = -0.64; replicate 2, z-score of dpERK with insulin = -1.23
Nlg3 (Neuroligin 3) [DRSC12540] → replicate 1, z-score of dpERK with insulin = 0.74; replicate 2, z-score of dpERK with insulin = -0.01
Nlg3 (Neuroligin 3) [DRSC12574] → replicate 1, z-score of dpERK with insulin = 0.48; replicate 2, z-score of dpERK with insulin = 0.79
TyrRS (Tyrosyl-tRNA synthetase) [DRSC10430] → replicate 1, z-score of dpERK with insulin = 1.39; replicate 2, z-score of dpERK with insulin = 0.21
CG31266 [DRSC15747] → replicate 1, z-score of dpERK with insulin = -0.09; replicate 2, z-score of dpERK with insulin = 0.31

Just “replicate 1, z-score of dpERK with insulin”, for 3 of the entries above:
CG34429 [DRSC10120] = -0.34
Nlg3 (Neuroligin 3) [DRSC12477] = 1.5
Nlg3 (Neuroligin 3) [DRSC12524] = -0.64
